The results in this text go back to PubChem BioAssay AID256 (DTP/NCI, 2004).

For the experiment, the system named is CD2F1 mice, L1210 leukemia ip, survival T/C. The experiment is described as follows: NCI In Vivo Anticancer Drug Screen. Data for tumor model L1210 Leukemia (intraperitoneal) in CD2F1 (CDF1) mice. The following applies: higher T/C = longer survival. An outline of the steps: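 Read-out first: treated-group measurement over vehicle-control measurement, expressed as a ratio. Animals bore a transplanted tumor line and were dosed with compound or vehicle.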

Where [1] appears, read: T/C endpoint: mean survival time, dose: 200.0 mg/kg/injection, schedule: Q01DX009 (ip), vehicle: saline with Tween-80.
Where [2] appears, read: T/C endpoint: mean survival time, dose: 200.0 mg/kg/injection, schedule: Q04DX002 (ip), vehicle: saline with Tween-80.
Setting [3] is: T/C endpoint: mean survival time, dose: 400.0 mg/kg/injection, schedule: Q04DX002 (ip), vehicle: saline with Tween-80.
Where [4] appears, read: T/C endpoint: mean survival time, dose: 400.0 mg/kg/injection, schedule: Q04DX003 (ip), vehicle: saline with Tween-80.
Where [5] appears, read: T/C endpoint: mean survival time, dose: 400.0 mg/kg/injection, schedule: Q01DX009 (ip), vehicle: saline with Tween-80.
[6] abbreviates: T/C endpoint: mean survival time, dose: 400.0 mg/kg/injection, schedule: Q01DX001 (ip), vehicle: saline.
Where [7] appears, read: T/C endpoint: mean survival time, dose: 400.0 mg/kg/injection, schedule: Q01DX001 (ip), vehicle: saline with Tween-80.
Where [8] appears, read: T/C endpoint: mean survival time, dose: 400.0 mg/kg/injection, schedule: Q04DX003 (ip), vehicle: saline.
Where [9] appears, read: T/C endpoint: mean survival time, dose: 200.0 mg/kg/injection, schedule: Q04DX003 (ip), vehicle: saline with Tween-80.

Molecules are shown by their SMILES. The list shows only some results of the screen, not a fair sample: it is rich in T/C values a quarter to a half above the control, in often repeated tests (any T/C) and in doses without a T/C. Further doses and runs are listed elsewhere. T/C is the treated group as % of the vehicle group. Some doses have a count of surviving animals in place of a T/C: the source files T/C as zero there, which appears to mark a toxic dose or a test without result, not a measured value. Some doses without a T/C left all or most animals alive at the check, yet need not have been tolerated: the source hardly ever lists a survival T/C far under the control, and the zero likely stands for such cases as well. Survivors were counted at the toxicity check, usually on the fifth day, unless a day is given; later deaths do not show. Schedule codes are those of the source, taken here to give the interval after Q, in days (D) or hours (H), and the number of doses after X. Some entries were tested several times; their values stand side by side, smallest first. Where survival is the endpoint, this PubChem deposit counts one and a half times the control or more as active, and values a quarter to a half above the control carry no call in these data; other NCI protocols may use other cut-offs.

Take `CCOC(=N)c1cn(C2OC(CO)C(O)C2O)c2ncnc(N)c12` (configuration not stated): the T/C (T/C endpoint: mean survival time, dose: 0.12 mg/kg/injection, schedule: Q01DX009 (ip), vehicle: saline) was 127 % of control; the T/C (T/C endpoint: mean survival time, dose: 0.18 mg/kg/injection, schedule: Q01DX009 (ip), vehicle: saline) is 128 % of control; the T/C (T/C endpoint: mean survival time, dose: 0.27 mg/kg/injection, schedule: Q01DX009 (ip), vehicle: saline) is 138 % of control; the T/C (T/C endpoint: mean survival time, dose: 0.4 mg/kg/injection, schedule: Q01DX009 (ip), vehicle: saline) was 138 % of control; the T/C (T/C endpoint: mean survival time, dose: 5.0 mg/kg/injection, schedule: Q01DX001 (ip), vehicle: saline) is 136 % of control; the T/C (T/C endpoint: mean survival time, dose: 10.0 mg/kg/injection, schedule: Q01DX001 (ip), vehicle: saline) was 143 % of control. In addition, the survivor count is recorded as 2 of 6 (T/C endpoint: mean survival time, dose: 20.0 mg/kg/injection, schedule: Q01DX001 (ip), vehicle: saline); 0 of 6 (T/C endpoint: mean survival time, dose: 40.0 mg/kg/injection, schedule: Q01DX001 (ip), vehicle: saline); 0 of 6 (T/C endpoint: mean survival time, dose: 75.0 mg/kg/injection, schedule: Q01DX001 (ip), vehicle: saline); 0 of 6 (T/C endpoint: mean survival time, dose: 80.0 mg/kg/injection, schedule: Q01DX001 (ip), vehicle: saline); 0 of 6 (T/C endpoint: mean survival time, dose: 150.0 mg/kg/injection, schedule: Q01DX001 (ip), vehicle: saline); 0 of 6 (T/C endpoint: mean survival time, dose: 300.0 mg/kg/injection, schedule: Q01DX001 (ip), vehicle: saline).

For `Nc1ccc(O)c2ccccc12`, the survivor count (T/C endpoint: mean survival time, dose: 6.0 mg/kg/injection, schedule: Q04DX003 (ip), vehicle: other) is recorded as 1 of 6.

In the case of `NC1=CC(=O)c2ccccc2C1=O`, under setting [1], the survivor count is 6 of 6.

Turning to `COc1ccc(Nc2ccc(C(=C3C=CC(=[N+](C)CCC#N)C=C3)c3ccc(N(C)CCC#N)cc3)cc2)cc1`, the survivor count runs as follows: under setting [2], 3 of 3; under setting [3], 3 of 3.

For `CN(Cc1ccc[n+](Cc2ccc(S(=O)(=O)F)cc2)c1)C(=O)COc1ccc(Cl)c(Cl)c1`, the survivor count under setting [4] is 3 of 6.

In the case of `CC1(C)OC2C(/C=C\C(=O)c3ccccc3)OC(n3ccc(=O)[nH]c3=O)C2O1` (configuration not stated), the survivor count (T/C endpoint: mean survival time, dose: 200.0 mg/kg/injection, schedule: Q01DX005 (ip), vehicle: distilled water + Tween-80) was 1 of 6.

For the compound `O=C(O)C1(Br)CCC1`, the survivor count is, setting by setting: under setting [2], 1 of 3; under setting [3], 0 of 3.

As for `NC(CSS(=O)(=O)O)=NCCCCN=C(N)CSS(=O)(=O)O`, the survivor count (T/C endpoint: mean survival time, dose: 100.0 mg/kg/injection, schedule: Q04DX002 (ip), vehicle: saline with Tween-80) is 0 of 3; the survivor count under setting [2] is recorded as 0 of 3; the survivor count under setting [3] was 0 of 3.

Turning to `O=C1c2cccc(NCCCNCCO)c2C(=O)c2cccc(NCCCNCCO)c21`, the survivor count (T/C endpoint: median survival time, dose: 100.0 mg/kg/injection, schedule: Q01DX009 (ip), vehicle: acid diluted with saline) was 0 of 6.

For `O=NN(CCCl)C(=O)Nc1cc(NC(=O)N(CCCl)N=O)cc(C(=O)O)c1`, for the setting “T/C endpoint: mean survival time, dose: 40.0 mg/kg/injection, schedule: Q04DX003 (ip), vehicle: saline with Tween-80”, the survivor count was 6 of 6.

`CN(C)C(=O)CCC(NC(=O)c1ccc(N(C)Cc2cnc3nc(N)nc(N)c3n2)cc1)C(=O)O` (configuration not stated): the T/C reads like this: (T/C endpoint: mean survival time, dose: 25.0 mg/kg/injection, schedule: Q01DX009 (ip), vehicle: sodium bicarbonate) 131 % of control; (T/C endpoint: mean survival time, dose: 50.0 mg/kg/injection, schedule: Q01DX009 (ip), vehicle: sodium bicarbonate) 144 % of control.

Regarding `CCNC(C)(C)C(SSSC(c1ccc(C(F)(F)F)cc1)C(C)(C)NCC)c1ccc(C(F)(F)F)cc1` (configuration not stated), the survivor count by setting is: (T/C endpoint: mean survival time, dose: 200.0 mg/kg/injection, schedule: Q01DX009 (ip), vehicle: saline) 2 of 6; (T/C endpoint: mean survival time, dose: 400.0 mg/kg/injection, schedule: Q01DX009 (ip), vehicle: saline) 0 of 6.

Regarding `O=C(O)/C=C/C(=O)Nc1ccc(Cl)cc1`, under setting [5], the survivor count is on record as 0 of 6.

Consider `C1CCC(C2CCCC[N-]2)[N-]C1.C1CCC(C2CCCC[N-]2)[N-]C1.C1CCC(C2CCCC[N-]2)[N-]C1.[Fe+6]` (configuration not stated), for which the survivor count is 0 of 6 (T/C endpoint: mean survival time, dose: 100.0 mg/kg/injection, schedule: Q01DX001 (ip), vehicle: saline); 0 of 6 (T/C endpoint: mean survival time, dose: 200.0 mg/kg/injection, schedule: Q01DX001 (ip), vehicle: saline); 0 of 6 under setting [6].

As for `OCC1OC(n2cnc3c([Se]Cc4ccccn4)ncnc32)C(O)C1O` (configuration not stated), the survivor count by setting is: (T/C endpoint: mean survival time, dose: 25.0 mg/kg/injection, schedule: Q01DX005 (ip), vehicle: saline) 3 of 6; (T/C endpoint: mean survival time, dose: 50.0 mg/kg/injection, schedule: Q01DX005 (ip), vehicle: saline) 0 of 6.

On to `N#C[Se]CC[Se]C#N`, for which the survivor count is 0 of 6 (T/C endpoint: mean survival time, dose: 100.0 mg/kg/injection, schedule: Q01DX001 (ip), vehicle: saline with Tween-80); 0 of 6 (T/C endpoint: mean survival time, dose: 200.0 mg/kg/injection, schedule: Q01DX001 (ip), vehicle: saline with Tween-80); 0 of 6 under setting [7].

In the case of `CC(C)(C)C1CCC(OC(=O)C(=O)O)CC1` (configuration not stated), the survivor count under setting [5] is 6 of 6.

Take `SC1(S)CN2CCC1CC2`: the survivor count by setting is: (T/C endpoint: mean survival time, dose: 100.0 mg/kg/injection, schedule: Q04DX003 (ip), vehicle: saline) 0 of 6; (T/C endpoint: mean survival time, dose: 200.0 mg/kg/injection, schedule: Q04DX003 (ip), vehicle: saline) 0 of 6; under setting [8], 0 of 6.

Regarding `CC(=O)Nc1sc([N+](=O)[O-])cc1[N+](=O)[O-]`, the survivor count under setting [9] is recorded as 1 of 3 and the survivor count under setting [4] is given as 1 of 3.

As to `NC/C(=N\O)c1ccc(Cl)cc1`, under setting [6], the survivor count is 2 of 6.

As to `O=C(CBr)c1ccccc1`, the survivor count (T/C endpoint: mean survival time, dose: 20.0 mg/kg/injection, schedule: Q01DX009 (ip), vehicle: saline with Tween-80) was 2 of 6.

Take `Nc1cc(N)nc(N)n1`: under setting [7], the survivor count is 0 of 6.

`C=CCCCCCCCCCCC(=O)OC`: the survivor count under setting [4] is 6 of 6.

As for `CCOC(=O)/N=C/N(C)C`, the survivor count (T/C endpoint: median survival time, dose: 200.0 mg/kg/injection, schedule: Q04DX003 (ip), vehicle: saline with Tween-80) is 0 of 3.

Take `CCOC(=O)C(C(=O)OCC)C1CCC2(C)CCC(=O)C=C2C1` (configuration not stated): the T/C under setting [3] is 136 % of control.

Take `C[N+](C)(C)CC1CO1` (configuration not stated): under setting [8], the survivor count is on record as 1 of 6.

Take `CC(C)[CH2][Sn](=[O])[OH]`: the survivor count under setting [1] is reported as 3 of 3.

With `C/C=C/C(OC(C)=O)OC(C)=O`, under setting [5], the survivor count is listed as 0 of 6.

On to `CC/C(=C(\c1ccccc1)c1ccc(OCCN(C)C)cc1)c1ccccc1`, for which the survivor count is, setting by setting: (T/C endpoint: median survival time, dose: 100.0 mg/kg/injection, schedule: Q01DX009 (ip), vehicle: saline with Tween-80) 4 of 6; (T/C endpoint: median survival time, dose: 200.0 mg/kg/injection, schedule: Q01DX009 (ip), vehicle: saline with Tween-80) 0 of 6; (T/C endpoint: median survival time, dose: 400.0 mg/kg/injection, schedule: Q01DX009 (ip), vehicle: saline with Tween-80) 0 of 6.

On to `CCCCCCCCCCCC(=O)NC(=S)Nc1cc(Cl)ccc1Cl`, for which the survivor count reads like this: under setting [9], 6 of 6; under setting [7], 5 of 6; under setting [5], 2 of 3 and 5 of 6.

For the compound `CN1C(=O)NC(c2ccc(Cl)cc2)(c2ccc(Cl)cc2)C1=O`, the survivor count (T/C endpoint: mean survival time, dose: 400.0 mg/kg/injection, schedule: Q01DX009 (ip), vehicle: distilled water + Tween-80) is 4 of 6 and the survivor count under setting [5] is 3 of 6.

On to `O=C1c2ccccc2C(=O)c2c(NCCN3CCNCC3)ccc(NCCN3CCNCC3)c21`, for which the survivor count (T/C endpoint: mean survival time, dose: 64.0 mg/kg/injection, schedule: Q01DX009 (ip), vehicle: acid diluted with saline) is on record as 0 of 6.

In the case of `O=[n+]1cc2ccccn2cc1-c1ccccc1`, under setting [4], the survivor count was 6 of 6.

In the case of `Nc1ccc(CCCCc2ccccc2)cc1`, the survivor count was 4 of 6 (T/C endpoint: mean survival time, dose: 200.0 mg/kg/injection, schedule: Q04DX003 (ip), vehicle: acetone) and 0 of 6 (T/C endpoint: mean survival time, dose: 400.0 mg/kg/injection, schedule: Q04DX003 (ip), vehicle: acetone).

On to `CCOc1ccc(-n2c(=O)c(N=Nc3ccccc3)c(O)n(-c3ccc(C)cc3)c2=S)cc1`, for which the survivor count under setting [7] is 1 of 6.

Consider `CCCCCC(O)CCC(=O)NN` (configuration not stated), for which, under setting [8], the survivor count was 1 of 6.
